PubChem BioAssay AID1487 (National Center for Advancing Translational Sciences (NCATS), 2009)
This is one part of the list. Further columns of the screen follow, without active or inactive calls. Compounds called inactive in the main read-out are mostly missing here. Words in brackets tell the shape of the fitted curve; partial curves, single points and poor fits give uncertain potencies.

Test: qHTS Assay for Modulators of Lamin A Splicing
Settings: HeLa LMNA splicing GFP/RFP minigene ratio, 48 h
Procedure, shortened: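 Read-out is the ratio of GFP to DsRed2 object intensity, acquired by 488 nm laser-scanning cytometry on HeLa lamin A-EGFP minigene reporter cells. Compound incubation 48 hrs at 37 °C in Opti-MEM with 2% FBS; DMSO 0.5% final.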

[1] = measured here: RFP viability control channel
[2] = measured here: GFP splicing reporter channel

Compound | AC50 [1] | AC50 [2]
CC1CCN(C2(O)C(=O)Nc3ccc(Br)cc32)CC1 (configuration not stated) | 14.1 µM [rising, single point] | 
O=C(Nc1ccccc1C(F)(F)F)c1ncoc1-c1ccco1 |  | 7.94 µM [falling, partial curve]
O=C(Cc1ccc([N+](=O)[O-])cc1)Nc1nnc(C2CC2)s1 |  | 3.16 µM [rising, single point]
CCNc1nc(Oc2ccc(C#N)cc2)cc(C(F)(F)F)n1 | 2.24 µM [rising, single point] | 
CC(C)Cc1nnc(NC(=O)CSc2ncn[nH]2)s1 | 17.8 µM [rising, partial curve, poor fit] | 17.8 µM [rising, single point]
CC1CCCC(NC(=S)NC(=O)c2cncc(Br)c2)C1C (configuration not stated) |  | 35.5 µM [rising, single point]
Cc1cc(C=O)c2c(c1)C=CC1(Oc3ccccc3C(=O)N1C)O2 (configuration not stated) | 35.5 µM [rising, single point] | 
O=C(COc1ccc(Br)cc1Br)NC(=S)Nc1cccc(CO)c1 |  | 35.5 µM [rising, single point]
CCN(C(=O)CN1CCN(S(=O)(=O)c2cc(Cl)ccc2Cl)CC1)c1c(N)n(Cc2ccccc2)c(=O)[nH]c1=O | 0.00447 µM [falling, full curve, poor fit] | 
O=C(NCC1CCCO1)C(c1cccs1)N(Cc1ccccc1)C(=O)c1ccc(-c2ccccc2)[nH]1 (configuration not stated) | 14.1 µM [rising, single point] | 
CS(=O)(=O)Nc1cccc(-c2ccc3ncnc(N4CCNCC4)c3c2)c1 | 11.2 µM [falling, single point] | 12.6 µM [falling, partial curve]
CCN1C(=O)CC(N2CCN(c3ccc(Cl)cc3)CC2)C1=O (configuration not stated) |  | 25.1 µM [rising, single point]
CC(C(=O)Nc1cccc([N+](=O)[O-])c1)N1CCN(C/C=C/c2ccccc2)CC1 (configuration not stated) |  | 14.1 µM [falling, partial curve]
O=C(Nc1nc(-c2cccs2)c(-c2cccs2)s1)C1CCCC1 | 11.2 µM [rising, partial curve, poor fit] | 
CCOc1ccccc1NC(=O)C1CCN(S(=O)(=O)c2ccc(OC)c(OC)c2)CC1 |  | 0.0891 µM [rising, full curve, poor fit]
Cc1ccc(-c2nn(-c3cc(N4CCNCC4)ccc3[N+](=O)[O-])c(=O)c3ccccc23)cc1 | 25.1 µM [rising, single point] | 
FC(F)(F)c1cnc(C(c2ccccn2)c2ncn[nH]2)c(Cl)c1 (configuration not stated) |  | 35.5 µM [falling, single point]
O=C(Nc1cccc(Cl)c1)C1CCCN(S(=O)(=O)c2ccc(F)cc2)C1 (configuration not stated) | 22.4 µM [rising, single point] | 15.8 µM [rising, single point]
Cc1cc(C(=O)Nc2c[nH]c(=O)[nH]c2=O)ccc1[N+](=O)[O-] | 0.126 µM [rising, full curve, poor fit] | 0.0891 µM [rising, full curve]
Cc1cccc(C)c1NC(=O)CN1CCN(CCCC(c2ccc(F)cc2)c2ccc(F)cc2)CC1 | 0.355 µM [falling, full curve, poor fit] | 0.282 µM [falling, full curve]
CC(C)CNS(=O)(=O)c1ccc(CCC(=O)Nc2cc(Cl)ccc2Oc2ccccc2)cc1 | 31.6 µM [rising, single point] | 
COc1ccc(CNS(=O)(=O)c2cc3c(cc2Cl)N(C(C)=O)CCO3)cc1 |  | 5.01 µM [falling, partial curve, poor fit]
C=CCn1c(SCC(=O)N2CCc3ccccc3C2)nc2sc(CC)cc2c1=O | 22.4 µM [rising, partial curve] | 35.5 µM [rising, single point]
COc1cc(NC(=O)CN2CCN(S(=O)(=O)c3ccc(Br)cc3)CC2)cc(OC)c1 |  | 0.1 µM [rising, full curve, poor fit]
COc1ccc(CNC(=O)N2CCN(c3ccc(F)cc3)CC2)cc1Cl | 5.62 µM [rising, single point] | 5.62 µM [rising, single point]
O=C(COc1ccccc1C(=O)O)Nc1nc2ccc([N+](=O)[O-])cc2s1 | 31.6 µM [rising, single point] | 
CCCOC(=O)c1cccc(NC(=O)c2c(-c3ccccc3Cl)noc2C)c1 | 6.31 µM [rising, single point] | 
O=C(COn1nnc2ccc(S(=O)(=O)N3CCOCC3)cc21)Nc1c(F)c(F)c(F)c(F)c1F | 20 µM [rising, partial curve] | 1.26 µM [rising, partial curve, poor fit]

Another view of part of the listing above:
Compound	AC50 [1]	AC50 [2]
CC(C)Cc1nnc(NC(=O)CSc2ncn[nH]2)s1	17.8 µM [rising, partial curve, poor fit]	17.8 µM [rising, single point]
Cc1cc(C=O)c2c(c1)C=CC1(Oc3ccccc3C(=O)N1C)O2 (configuration not stated)	35.5 µM [rising, single point]	
CCN1C(=O)CC(N2CCN(c3ccc(Cl)cc3)CC2)C1=O (configuration not stated)		25.1 µM [rising, single point]

The list goes on.

Compound | AC50 [1] | AC50 [2]
Cc1cc(C)cc(-n2c(SCC(=O)N3CCC(C)CC3)nc3c([nH]c4ccccc43)c2=O)c1 | 0.0224 µM [falling, full curve, poor fit] | 0.02 µM [falling, full curve, poor fit]
CCCCC1=CC2=CC(=O)C(C)(OC(=O)CC)C(=O)C2=CN1Cc1ccc2c(c1)OCO2 (configuration not stated) | 0.126 µM [falling, partial curve, poor fit] | 1.41 µM [falling, partial curve, poor fit]
COc1ccc(NS(=O)(=O)c2ccc(NC(=O)c3ccc(N(C)S(C)(=O)=O)cc3)cc2)cc1 | 4.47 µM [rising, full curve] | 
CC(C)(C)OC(=O)NNC(=O)Nc1ccccc1C(F)(F)F | 1.78 µM [rising, full curve] | 6.31 µM [rising, partial curve, poor fit]
COc1ccc(Nc2oc(-c3ccc(F)cc3)nc2C#N)cc1 |  | 6.31 µM [rising, single point]
Cc1ccc(NC(=O)CSc2nnc(-c3ccco3)o2)c(C)c1 | 0.00316 µM [falling, full curve, poor fit] | 
COc1ccc(NC(=O)/C=C/c2ccc(C)o2)cc1S(=O)(=O)N1CCOCC1 | 11.2 µM [rising, single point] | 
CCN(CC)C(=O)c1ccccc1NC(=O)CN1C(=O)c2ccccc2C1=O |  | 35.5 µM [falling, single point]
Cn1c(=O)c2ncn(CC(=O)NC3CCCCCC3)c2n(C)c1=O | 0.0398 µM [falling, full curve] | 
CC(=O)Nc1nc(-c2ccc(Cl)cc2)ns1 | 15.8 µM [rising, partial curve] | 0.0398 µM [rising, full curve, poor fit]
CCc1ccc(OCCOCC(O)CN2CCN(Cc3ccc(Cl)cc3)CC2)cc1 (configuration not stated) | 15.8 µM [rising, partial curve] | 10 µM [rising, partial curve, poor fit]
c1ccc(-n2nnnc2SCc2cccc3nsnc23)cc1 |  | 20 µM [rising, single point]
Cc1ccc([N+](=O)[O-])cc1S(=O)(=O)N(C(=O)c1ccncc1)c1ccc2oc3c(c2c1)CCCC3 | 25.1 µM [rising, single point] | 
O=C1CCCN1CCCNC(=S)Nc1ccc(Cl)cc1Cl | 28.2 µM [falling, single point] | 
CN(C)CCCn1c(SCC(=O)N2CC(=O)Nc3ccccc32)nc2ccccc2c1=O |  | 0.0708 µM [falling, full curve, poor fit]
COc1ccc(CNC(=O)C2CCCN(S(=O)(=O)c3ccc4c(ccn4C)c3)C2)c(OC)c1 (configuration not stated) | 2.82 µM [rising, partial curve, poor fit] | 
Cn1ccnc1C(=O)c1ccc(NN)c([N+](=O)[O-])c1 | 14.1 µM [rising, single point] | 
CCOc1ccc2nc(N3CCN(C(=O)c4ccco4)CC3)sc2c1 | 0.00316 µM [falling, full curve, poor fit] | 0.224 µM [falling, full curve, poor fit]
CC(C)Cn1c(-c2nn(C)cc2Cl)n[nH]c1=S |  | 1 µM [rising, partial curve]
O=C(COc1ccc2ccccc2c1)NCCc1ccc2c(c1)OCCO2 | 22.4 µM [rising, single point] | 
O=C(C1CCC(Cn2c(=O)c3sccc3n(Cc3ccccc3)c2=O)CC1)N1CCOCC1 (configuration not stated) | 5.01 µM [falling, full curve, poor fit] | 
Cn1c(=O)n(Cc2ccc(Cl)cc2)c(=O)c2c1nc1n2CCN1Cc1ccco1 |  | 14.1 µM [rising, partial curve, poor fit]
Cc1ccc(NC(=O)/C(Cl)=C/c2ccccc2)cc1C | 25.1 µM [rising, partial curve] | 35.5 µM [rising, single point]
O=C(NCc1ccco1)c1cc2nc(-c3cccs3)cc(C(F)(F)F)n2n1 |  | 0.0355 µM [rising, full curve, poor fit]
CC(=O)O[C@]1(C(C)=O)CC[C@H]2[C@@H]3C=C(C)C4=CC(=O)CC[C@]4(C)[C@H]3CC[C@@]21C | 8.91 µM [falling, partial curve] | 2.82 µM [falling, full curve, poor fit]
COc1ccc(S(=O)(=O)c2c(Nc3ccccc3F)sc(C(=O)c3cccc(OC)c3)c2N)cc1 | 2.24 µM [rising, full curve] | 
CCOC(=O)c1[nH]c(C)c(C(=O)OCC(=O)Nc2sc3c(c2C#N)CCCCC3)c1C | 22.4 µM [falling, partial curve, poor fit] | 1.78 µM [falling, partial curve, poor fit]
